Experimental data published in PubChem BioAssay AID2685 (National Center for Advancing Translational Sciences (NCATS), 2010).
Values joined by “and” are separate entries in the source; they are usually repeats but may differ in a detail not shown here. Equal values may be shown once. This is one part of the list. Further columns of the screen follow, without active or inactive calls. The list favours compounds with an active or inconclusive main result. Potencies come from curve fits of mixed quality, noted in brackets.

Assay: qHTS Assay for Lipid Storage Modulators in Drosophila S3 Cells;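 for cell number change: cells counted by Cell Tracker Red CMTPX staining in the red channel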
Details: BODIPY lipid droplet fluorescence, 18-24 h; for cell number change: measured here: cell count max response, cells fed with added oleic acid
Method in brief: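 Drosophila S3 cells loaded with oleic acid (400 uM, as added) and compounds at several concentrations; lipid droplets imaged by 488-nm laser-scanning cytometry, 500–530 nm intensity and object ratio to cell channel. Percent activity normalized to 20 uM Triacsin C.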

[1] = measured here: cell number channel AC50, cells fed with added oleic acid
[2] = measured here: lipid fluorescence (Fed channel) AC50, cells fed with added oleic acid

Compound	AC50 [1]	AC50 [2]	cell number change
Cc1ccc(S(=O)(=O)c2c(N)n(NC(=O)c3ccccc3C)c3nc4ccccc4nc23)cc1	2.06 µM [rising, partial curve]	2.59 µM [rising, partial curve]	–
c1cnc(SCCCOc2ccc3ccccc3c2)nc1	4.11 µM [rising, partial curve, poor fit]	29.1 µM [rising, single point]	58.4%
O=C(CNC(=O)c1cc2ccccc2o1)NCc1cccs1	29.1 µM [falling, single point]	–	-69.7%
CCN1C(=O)/C(=C2/Sc3ccccc3N2CCCS(=O)(=O)O)SC1=S	–	20.6 µM [falling, single point] and 25.9 µM [rising, single point]	-22% and 5.51%
COc1ccc(N2CC(C(=O)Nc3nnc(SCC(=O)NC(C)(C)C)s3)CC2=O)cc1 (stereo not drawn)	–	6.51 µM [falling, single point]	-0.44%
CCOc1ccc(C(=O)CSCC(=O)O)cc1	–	6.51 µM [falling, single point]	-11.3%
CCOC(=O)C1CCCN(CCC(=O)Nc2cc(OC)ccc2OC)C1 (stereo not drawn)	–	29.1 µM [rising, single point]	19.9%
CN1C(C(=O)NCc2cccc(C(F)(F)F)c2)CC2Cn3c(nc4ccccc43)C21 (stereo not drawn)	–	2.31 µM [rising, partial curve]	–
Cc1nc2ccc(S(=O)(=O)NCC(=O)N(C)Cc3ccccc3)cc2s1	–	32.6 µM [falling, single point]	-23.7%
O=c1oc(CCCO)cc2ccc(C#Cc3ccsc3)cc12	–	0.146 µM [falling, full curve, poor fit]	-10.3%
CCOC(=O)c1nc2ccccc2s1	–	23.1 µM [rising, single point]	2.56%
O=C(c1ccccc1)n1ccc(-c2cnc(-c3ccccc3)s2)n1	2.06 µM [rising, partial curve]	2.31 µM [rising, partial curve]	–
Cc1nc2sc(C(c3ccco3)N3CCN(c4ccccc4F)CC3)c(O)n2n1 (stereo not drawn)	3.66 µM [falling, single point]	–	13%
CC/C(=C/c1sc2ccc(C)cc2[n+]1CCO)SC	–	25.9 µM [rising, single point]	17.7%
Cc1ccc(/C=C/C(=O)OCC(=O)Nc2cccnc2Cl)cc1	–	0.461 µM [falling, single point]	-17.6%
Cc1cc(C)nc(SCC(=O)N/N=C\C(Br)=C\c2ccccc2)n1	29.1 µM [rising, single point]	29.1 µM [rising, single point]	164%

3 structures from above, ordered by SMILES length, high to low:
Compound	AC50 [1]	AC50 [2]	cell number change
CCN1C(=O)/C(=C2/Sc3ccccc3N2CCCS(=O)(=O)O)SC1=S	–	20.6 µM [falling, single point] and 25.9 µM [rising, single point]	-22% and 5.51%
Cc1cc(C)nc(SCC(=O)N/N=C\C(Br)=C\c2ccccc2)n1	29.1 µM [rising, single point]	29.1 µM [rising, single point]	164%
CCOC(=O)c1nc2ccccc2s1	–	23.1 µM [rising, single point]	2.56%
